Data as given in PubChem BioAssay AID652243 (Drosophila RNAi Screening Center, 2013).

Purpose: 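Knock-downs that decrease or increase androgen receptor reporter signal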 (primary screen)
Cells: Drosophila S2R+ cells
Reagent: long dsRNA against Drosophila genes
Timing: 72 h (48 h, then 24 h hormone)
Conditions: synthetic androgen R1881 at 10 nM for 24 h
Measurement: 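Firefly light from an androgen-responsive reporter and Renilla control light per well, raw and unnormalised, for each of two replicates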
Scale: firefly reporter light: higher = more light from androgen-responsive reporter; Renilla control light: higher = more constitutive control signal (cell number, transfection)
Rule for the call: 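Hit when the log firefly-to-Renilla ratio dropped or increased by a fixed fold versus the mean of GFP or LacZ controls across duplicate plates; lowering cut given as 1.5 and as 3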
Meaning of the calls: active = hit: reporter lowered or raised; inactive = no hit
In all, the deposit lists about 24,000 reagents; this is a random part of those with a known target gene and a result. Of all reagents, 246 (1%) got an active call. 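Plates not normalised; calls are printed but the firefly/Renilla ratio behind them is not deposited; fold cut for lowering reported inconsistently.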 The raw values are shown without normalisation. Reagents against one gene are numbered here. A plus sign joins genes that one reagent is predicted to hit. No sequences are given here. Not given: the amount of reagent.

Target gene | dsRNA no. | firefly reporter light, replicate 1 | firefly reporter light, replicate 2 | Renilla control light, replicate 1 | Renilla control light, replicate 2 | Call
unk (GeneID 42738) | 1 | 1.15e5 | 1.25e5 | 9.27e5 | 1.04e6 | inactive
unk (GeneID 42738) | 2 | 4.54e5 | 3.92e5 | 4.03e5 | 4.88e5 | inactive
Prm (GeneID 39002) | 1 | 1.19e5 | 1.28e5 | 3.46e5 | 3.95e5 | inactive
Prm (GeneID 39002) | 2 | 1.65e5 | 1.09e5 | 4.03e5 | 4.10e5 | inactive
Prm (GeneID 39002) | 3 | 5.60e5 | 5.64e5 | 1.08e6 | 1.50e6 | inactive
Prm (GeneID 39002) | 4 | 4.76e5 | 3.96e5 | 6.24e5 | 4.25e5 | inactive
CG30031 + deltaTry + gammaTry | 1 | 2.60e5 | 1.84e5 | 1.91e6 | 1.23e6 | inactive
CG34293 (GeneID 5740555) | 1 | 9.66e5 | 7.74e5 | 1.50e6 | 1.60e6 | inactive
DIP-delta (GeneID 5740816) | 1 | 1.88e5 | 1.56e5 | 1.70e6 | 1.61e6 | inactive
DIP-delta (GeneID 5740816) | 2 | 3.06e5 | 2.63e5 | 2.94e6 | 2.37e6 | inactive
CG33116 (GeneID 326259) | 1 | 1.05e6 | 9.71e5 | 1.21e6 | 1.37e6 | inactive
CG33116 (GeneID 326259) | 2 | 8.04e5 | 8.84e5 | 2.11e6 | 2.71e6 | inactive
CG46441 (GeneID 42423) | 1 | 94341 | 95593 | 1.34e6 | 1.25e6 | inactive
CG46441 (GeneID 42423) | 2 | 8.14e5 | 8.51e5 | 1.17e6 | 1.11e6 | inactive
Ent3 (GeneID 39461) | 1 | 6.61e5 | 4.67e5 | 1.74e6 | 9.98e5 | inactive
Ent3 (GeneID 39461) | 2 | 4.50e5 | 4.01e5 | 1.92e6 | 1.62e6 | inactive
CG8112 (GeneID 41033) | 1 | 1.57e5 | 1.33e5 | 3.10e6 | 2.04e6 | inactive
Mpp6 (GeneID 35382) | 1 | 1.15e5 | 1.49e5 | 1.34e6 | 1.72e6 | inactive
Mpp6 (GeneID 35382) | 2 | 4.83e5 | 3.77e5 | 1.24e6 | 1.43e6 | inactive
her (GeneID 34992) | 1 | 4.29e5 | 1.09e6 | 1.02e6 | 2.09e6 | inactive
CG14852 (GeneID 41765) | 1 | 1.51e5 | 1.06e5 | 2.15e6 | 2.02e6 | inactive
CG14852 (GeneID 41765) | 2 | 8.91e5 | 9.05e5 | 9.29e5 | 8.91e5 | inactive
CG42304 + Snup | 1 | 6.43e5 | 5.88e5 | 1.89e6 | 1.84e6 | inactive
CG42304 + Snup | 2 | 26082 | 15546 | 4.96e5 | 4.09e5 | active
CG42304 + Snup | 3 | 1.34e5 | 2.85e5 | 9.21e5 | 1.10e6 | active
CG42304 + Snup | 4 | 1.20e6 | 1.29e6 | 7.66e5 | 9.35e5 | inactive
CG42304 + Snup | 5 | 4.05e5 | 3.29e5 | 1.29e6 | 1.52e6 | inactive
Mgat3 (GeneID 318981) | 1 | 1.72e5 | 2.58e5 | 3.33e5 | 4.07e5 | inactive
Mgat3 (GeneID 318981) | 2 | 4.60e5 | 5.17e5 | 1.15e6 | 1.15e6 | inactive
CG11322 (GeneID 33949) | 1 | 2.68e5 | 2.01e5 | 3.15e6 | 2.27e6 | inactive
CG11322 (GeneID 33949) | 2 | 7.61e5 | 7.34e5 | 6.95e5 | 8.71e5 | inactive
CG11322 (GeneID 33949) | 3 | 4.89e5 | 6.66e5 | 1.97e6 | 1.88e6 | inactive
Cpr65Az (GeneID 38712) | 1 | 1.60e5 | 1.93e5 | 2.41e6 | 3.65e6 | inactive
Cpr65Az (GeneID 38712) | 2 | 8.79e5 | 9.56e5 | 2.04e6 | 1.56e6 | inactive
Cpr65Az (GeneID 38712) | 3 | 8.12e5 | 9.44e5 | 9.67e5 | 1.11e6 | inactive
tbrd-3 (GeneID 246604) | 1 | 3.25e5 | 3.14e5 | 2.26e6 | 1.19e6 | inactive
tbrd-3 (GeneID 246604) | 2 | 3.77e5 | 4.27e5 | 6.93e5 | 5.74e5 | inactive
Pat1 (GeneID 31593) | 1 | 1.39e5 | 1.63e5 | 6.96e5 | 7.13e5 | inactive
Pat1 (GeneID 31593) | 2 | 2.52e5 | 2.99e5 | 5.61e5 | 6.19e5 | inactive
Elp6 (GeneID 41641) | 1 | 50455 | 56240 | 3.71e5 | 4.14e5 | inactive
Esyt2 (GeneID 42929) | 1 | 24887 | 25920 | 4.20e5 | 4.06e5 | active
cid (GeneID 36495) | 1 | 1.32e5 | 1.95e5 | 3.88e5 | 3.66e5 | inactive
cid (GeneID 36495) | 2 | 1.35e5 | 1.47e5 | 3.50e6 | 3.50e6 | inactive
CG6231 (GeneID 42339) | 1 | 2.83e5 | 3.00e5 | 2.99e6 | 3.45e6 | inactive
Ccdc85 (GeneID 33509) | 1 | 9.34e5 | 6.21e5 | 1.30e6 | 1.96e6 | inactive
prom (GeneID 246493) | 1 | 1.40e5 | 1.26e5 | 1.11e6 | 1.04e6 | inactive
prom (GeneID 246493) | 2 | 1.34e6 | 1.40e6 | 1.66e6 | 1.76e6 | inactive
prom (GeneID 246493) | 3 | 9.62e5 | 1.10e6 | 1.40e6 | 1.45e6 | inactive
prom (GeneID 246493) | 4 | 5.66e5 | 5.27e5 | 5.90e5 | 6.98e5 | inactive
prom (GeneID 246493) | 5 | 3.77e5 | 3.23e5 | 7.68e5 | 7.10e5 | inactive
prom (GeneID 246493) | 6 | 1.90e5 | 2.02e5 | 4.01e5 | 7.57e5 | inactive
l(3)04053 (GeneID 46158) | 1 | 2.57e5 | 2.88e5 | 2.20e6 | 2.18e6 | inactive
CG8860 (GeneID 36310) | 1 | 5.41e5 | 3.95e5 | 2.41e6 | 2.98e6 | inactive
CG8860 (GeneID 36310) | 2 | 1.01e6 | 8.18e5 | 1.25e6 | 1.29e6 | inactive
Klc (GeneID 39445) | 1 | 9.45e5 | 5.84e5 | 1.03e6 | 9.86e5 | inactive
Klc (GeneID 39445) | 2 | 4.19e5 | 2.68e5 | 5.37e5 | 5.32e5 | inactive
CG8813 (GeneID 33490) | 1 | 8.01e5 | 5.59e5 | 2.22e6 | 1.79e6 | inactive
CG6138 (GeneID 34454) | 1 | 1.59e5 | 1.30e5 | 1.26e6 | 1.01e6 | inactive
CG11291 (GeneID 37541) | 1 | 1.55e5 | 1.87e5 | 1.32e6 | 1.33e6 | inactive
Vlet (GeneID 32116) | 1 | 1.04e5 | 99913 | 8.87e5 | 9.34e5 | inactive
Vlet (GeneID 32116) | 2 | 4.80e5 | 6.06e5 | 7.19e5 | 7.74e5 | inactive
GstE9 (GeneID 246581) | 1 | 87572 | 1.99e5 | 1.12e6 | 1.65e6 | inactive
GstE9 (GeneID 246581) | 2 | 6.46e5 | 4.84e5 | 1.36e6 | 1.15e6 | inactive
CG3483 (GeneID 37900) | 1 | 5.60e5 | 5.31e5 | 1.16e6 | 9.82e5 | inactive
brp (GeneID 35977) | 1 | 3.91e5 | 2.50e5 | 2.39e6 | 2.03e6 | inactive
brp (GeneID 35977) | 2 | 2.97e5 | 2.41e5 | 1.59e6 | 1.48e6 | inactive
brp (GeneID 35977) | 3 | 2.15e5 | 1.96e5 | 1.61e6 | 1.43e6 | inactive
brp (GeneID 35977) | 4 | 5.11e5 | 5.46e5 | 1.58e6 | 8.88e5 | inactive
brp (GeneID 35977) | 5 | 8.00e5 | 7.21e5 | 1.45e6 | 1.54e6 | inactive
brp (GeneID 35977) | 6 | 3.49e5 | 3.87e5 | 1.42e6 | 1.41e6 | inactive
CG8072 (GeneID 39181) | 1 | 1.94e5 | 1.85e5 | 1.86e6 | 1.44e6 | inactive
Drsl2 (GeneID 38408) | 1 | 1.53e5 | 1.70e5 | 1.85e6 | 2.85e6 | inactive
Drsl2 (GeneID 38408) | 2 | 5.92e5 | 5.77e5 | 6.52e5 | 5.49e5 | inactive
Cpr66Cb (GeneID 38940) | 1 | 3.26e5 | 2.16e5 | 2.96e6 | 1.91e6 | inactive

9 entries from above, set out differently:
{"Target gene":"l(3)04053 (GeneID 46158)","dsRNA no.":1,"firefly reporter light, replicate 1":2.57e5,"firefly reporter light, replicate 2":2.88e5,"Renilla control light, replicate 1":2.20e6,"Renilla control light, replicate 2":2.18e6,"Call":"inactive"}
{"Target gene":"CG8860 (GeneID 36310)","dsRNA no.":1,"firefly reporter light, replicate 1":5.41e5,"firefly reporter light, replicate 2":3.95e5,"Renilla control light, replicate 1":2.41e6,"Renilla control light, replicate 2":2.98e6,"Call":"inactive"}
{"Target gene":"CG8860 (GeneID 36310)","dsRNA no.":2,"firefly reporter light, replicate 1":1.01e6,"firefly reporter light, replicate 2":8.18e5,"Renilla control light, replicate 1":1.25e6,"Renilla control light, replicate 2":1.29e6,"Call":"inactive"}
{"Target gene":"Klc (GeneID 39445)","dsRNA no.":1,"firefly reporter light, replicate 1":9.45e5,"firefly reporter light, replicate 2":5.84e5,"Renilla control light, replicate 1":1.03e6,"Renilla control light, replicate 2":9.86e5,"Call":"inactive"}
{"Target gene":"Klc (GeneID 39445)","dsRNA no.":2,"firefly reporter light, replicate 1":4.19e5,"firefly reporter light, replicate 2":2.68e5,"Renilla control light, replicate 1":5.37e5,"Renilla control light, replicate 2":5.32e5,"Call":"inactive"}
{"Target gene":"CG8813 (GeneID 33490)","dsRNA no.":1,"firefly reporter light, replicate 1":8.01e5,"firefly reporter light, replicate 2":5.59e5,"Renilla control light, replicate 1":2.22e6,"Renilla control light, replicate 2":1.79e6,"Call":"inactive"}
{"Target gene":"CG6138 (GeneID 34454)","dsRNA no.":1,"firefly reporter light, replicate 1":1.59e5,"firefly reporter light, replicate 2":1.30e5,"Renilla control light, replicate 1":1.26e6,"Renilla control light, replicate 2":1.01e6,"Call":"inactive"}
{"Target gene":"CG11291 (GeneID 37541)","dsRNA no.":1,"firefly reporter light, replicate 1":1.55e5,"firefly reporter light, replicate 2":1.87e5,"Renilla control light, replicate 1":1.32e6,"Renilla control light, replicate 2":1.33e6,"Call":"inactive"}
{"Target gene":"Vlet (GeneID 32116)","dsRNA no.":1,"firefly reporter light, replicate 1":1.04e5,"firefly reporter light, replicate 2":99913,"Renilla control light, replicate 1":8.87e5,"Renilla control light, replicate 2":9.34e5,"Call":"inactive"}
